Measurements published in patent US20240075000A1 (priority 2021, published 2024).
Counter-ions that a name gives are not always drawn. At least one structure is not confirmed: it was looked up by name or label, or the drawing left a doubt.

What was measured:
[1] = system: post-COVID-19 fatigue patient; assay: post-COVID-19 fatigue case, physician (Example 3); settings: 500 mg BID
[2] = system: Amyotrophic Lateral Sclerosis (ALS) patients; assay: Phase 1 clinical trial in ALS, patient testimonials; type: in vivo, human
Procedure: A Phase 1 clinical trial was conducted with the Inventor supplying the anhydrous enol-oxaloacetate drug. Typically, Phase 1 clinical trials focus on the safety of a proposed drug, but patient response efficacy is also important and is noted. […] My name is […]. I was diagnosed with Bulbar onset ALS by Dr. Jawdat at the KU Medical Center in Kansas City KS on Oct. 14, 2020. […] I have muscle fasciculations pretty much all over my body at times and most are constant. The first 4 to 5 days taking the supplement, I did feel like they intensified an hour to two hours after taking it, and it lasted for approximately an hour or two. After those 4 or 5 days, it went back to the normal strength. At approximately the third week of taking the supplement I began to notice my tongue movement had better range of motion. I could see it pushing out the side of my cheek, I couldn't get it over there before. I also have felt like my left hand has gained a little strength and grip and I feel like I have a bit more strength in my left wrist. I do however feel like most things are still declining, but with such a short time of trying the supplement, I want to keep taking it to see if things can keep improving/changing. I am currently not on any ALS medications but do take some vitamins. • Patient 2. My spouse, Nathan, was part of a study with oxaloacetate for ALS. […]

Structure (SMILES): O=C(O)CC(=O)C(=O)O [anhydrous enol-oxaloacetate, hydroxy fumarate]
- fatigue outcome in words ([1]; after a total of six weeks): resolved
- fatigue scores, change in words ([1]; after two weeks): slight improvement
- muscle fatigue, one testimonial ([2]; 1000 mg BID): improvement in their muscle fatigue
- pathological fatigue, two testimonials ([2]; 1500 mg BID, 28 days): improvements in their pathological fatigue
